In PubChem BioAssay AID1347075 (National Center for Advancing Translational Sciences (NCATS), 2019):
The campaign covered roughly 400,000 compounds. About 5,500 (1.4%) were called active. The shares of active, inactive and inconclusive entries below differ from those in the screen. Calls come from the whole dose curve; as a rule, active = well fitted cell-killing curve with a large enough effect; inconclusive = small, poorly fitted or top-dose-only effect, or effect the other way; inactive = flat fitted curve, though single readings scatter. Potencies of inconclusive entries are doubtful fits and often do not repeat.
% is set by controls: 0 for no effect and ±100 for the full control effect; potency is the fitted concentration of half-maximal effect.

Test: qHTS assay for MDR1-selective chemotherapeutics: Primary screen using the parental adenocarcinoma cell KB-3-1; note: nearly all actives have a fitted effect of over 60% in size
Conditions: KB-3-1 viability, CellTiter-Glo ATP luminescence, 72 h; activity change, negative = cytotoxic: at 46.1 µM (top of the series)
Method in brief: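 Parental KB-3-1 adenocarcinoma cells in phenol-red-free DMEM with 10% FBS were pin-treated with compounds at several concentrations, incubated 72 h at 37 °C, and viability read by CellTiter-Glo luminescence; concentration-effect curves were fitted after normalization.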
In the case of `O=C(NCCc1ccccc1)c1oc2ccccc2c1COc1ccccc1`, the Potency is reported as inconclusive: 20.6 µM [cytotoxic, single point]. With `CS(=O)(=O)c1nc(S(=O)(=O)c2ccc(Cl)cc2)c(NCCCN2CCCC2=O)s1` the Potency was inconclusive: 20.6 µM [cytotoxic, single point]. For `CO/N=C/C(C(C)=O)C(=O)Nc1ccc(Cl)cc1Cl` (stereo unspecified), the Potency was inconclusive: 20.6 µM [cytotoxic, single point]. For `CN1CCN(c2sc(S(C)(=O)=O)nc2S(=O)(=O)c2ccc(Cl)cc2)CC1`, the Potency was inconclusive: 16.4 µM [cytotoxic, single point]. In the case of `CC(=NCc1ccccc1)C1=C(O)COC1=O`, the Potency is reported as inconclusive: 23.1 µM [cytotoxic, single point]. With `CN(CCc1ccccc1)C(=O)c1cccc(NC(=O)Cc2cccc(NC(=O)C3CCN(C(=O)C4CCCC4)CC3)c2)c1` the Potency was inconclusive: 29.1 µM [cytotoxic, single point]. In the case of `O=C(/C=C/c1ccc2c(c1)OCO2)c1ccccn1`, the Potency is reported as inconclusive: 20.6 µM [cytotoxic, single point]. With `CCCOc1ccc2ccccc2c1/C=N/n1c(C)nnc1-n1nc(C)cc1C` the Potency was active: 5.17 µM. In the case of `COc1cccc(C(=O)Nc2cccc(-c3cn4c(C)csc4n3)c2)c1OC`, the “activity change, negative = cytotoxic” value is reported as inactive: 2.16%. In the case of `COc1cc(SC)ccc1C(=O)NCC1CCCCC1`, the “activity change, negative = cytotoxic” value is reported as inactive: -0.901%. For `Cn1c(=O)c(C(=O)NCCO)c(O)c2ccccc21`, the Potency was inconclusive: 29.1 µM [cytotoxic, single point]. In the case of `CCCc1nc2oc3c(Cl)ncnc3c2c2c1CCCC2`, the Potency is reported as inconclusive: 29.1 µM [cytotoxic, partial curve, poor fit]. For `CC1(C)CCC2=C(O1)c1ccccc1C(=O)C2=O`, the Potency was inconclusive: 29.1 µM [cytotoxic, single point]. With `CSCC[C@H](N)C(=O)N1CCC(C(=O)N[C@H](C)C(=O)Nc2ccc(C(C)C)cc2)CC1` the “activity change, negative = cytotoxic” value was inactive: -2.5%. For `Cc1ccc(C)c(S(=O)(=O)N2CCCC2CNC(=O)C(=O)NCCc2ccco2)c1` (stereo unspecified), the Potency was inconclusive: 29.1 µM [cytotoxic, single point]. With `Cc1cc(C(=O)COc2ccccc2C(N)=O)c(C)n1C1CC1` the “activity change, negative = cytotoxic” value was inactive: 5.08%. With `CC1(C(=O)Nc2cccc3cccnc23)CCN1Cc1ccccc1OC(F)F` (stereo unspecified) the “activity change, negative = cytotoxic” value was inactive: -0.0074%. For `C=CCNc1nc(-c2ccccc2)c(C(=O)OCC)cc1C#N`, the Potency was active: 10.3 µM. For `CC(=O)N1CCN(C(=O)c2cc(S(=O)(=O)N(C)Cc3ccccc3)ccc2Cl)CC1`, the “activity change, negative = cytotoxic” value was inactive: 7.68%. With `Cc1ccc(C(=O)Nc2ccccc2SCC2CSc3nc4ccccc4c(=O)n32)cc1` (stereo unspecified) the Potency was inconclusive: 9.2 µM [cytotoxic, partial curve, poor fit]. For `Cc1nc2c(-c3ccccc3)c[nH]n2c(=O)c1Cc1ccccc1`, the Potency was active: 11.6 µM. In the case of `COc1cc(C(C[N+](=O)[O-])c2c(C)cc3ccccn23)ccc1O` (stereo unspecified), the Potency is reported as inconclusive: 29.1 µM [cytotoxic, single point]. In the case of `C=CCn1c(CNc2ccccc2)nnc1SCC(=O)N/N=C/c1ccccc1O`, the “activity change, negative = cytotoxic” value is reported as inactive: -18.5%. For `COCCN=C1N[C@@H](c2ccc(Br)cc2)C(C(=O)OC)=C(C)N1Cc1ccccc1`, the “activity change, negative = cytotoxic” value was inactive: -21.5%. For `CSCC[C@H](NC(=O)OC(C)(C)C)c1nnc(SCc2cccc(F)c2)o1`, the “activity change, negative = cytotoxic” value was inactive: 8.82%. With `CC1=C(C(=O)Nc2ccc(C)cc2C)C(c2cccs2)n2nc(SCc3ccccc3Cl)nc2N1` (stereo unspecified) the “activity change, negative = cytotoxic” value was inactive: -5.98%. With `Cc1ccccc1CN(c1ccc(C(=O)N2CCCC2)cc1)S(C)(=O)=O` the “activity change, negative = cytotoxic” value was inactive: 8.8%. For `CCN(Cc1ccccc1)C(=O)Cn1c(=O)n(-c2ccc(C)c(C)c2)c(=O)c2c(C)c(C)sc21`, the “activity change, negative = cytotoxic” value was inactive: 3.87%. With `O=c1oc2ccccc2cc1-c1cn2cc(Cc3ccc(Cl)cc3)sc2n1` the Potency was inconclusive: 0.82 µM [cytotoxic, full curve, poor fit]. With `Cc1ccc(-c2nc(C)c(CCNS(=O)(=O)c3ccc(F)c(C(F)(F)F)c3)s2)cc1` the Potency was inconclusive: 29.1 µM [cytotoxic, single point]. With `Cc1ccc(Cn2c(=N)n(CC(=O)c3ccc([N+](=O)[O-])cc3)c3ccccc32)cc1` the Potency was active: 18.4 µM. For `COc1ccc(CNc2oc(-c3ccc(COc4ccccc4C)o3)nc2C#N)cc1`, the Potency was inconclusive: 32.6 µM [cytotoxic, single point]. For `O=C(CN1C(=O)NC2(CCCCCC2)C1=O)c1ccc(Cl)s1`, the “activity change, negative = cytotoxic” value was inactive: 1.77%. For `Cc1ccc(C(=O)N2c3ccccc3N=C(c3ccccc3)C2C(=O)NC(C)C)cc1` (stereo unspecified), the Potency was inconclusive: 29.1 µM [cytotoxic, single point]. With `O=C(NCCCN1CCN(c2ccc(F)cc2)CC1)c1ccc2nc(Cc3ccccc3)oc2c1` the Potency was inconclusive: 29.1 µM [cytotoxic, single point]. With `O=C1c2ccccc2NC(c2ccc(-c3cccs3)o2)N1O` (stereo unspecified) the Potency was inconclusive: 20.6 µM [cytotoxic, single point]. In the case of `C=CCOc1nc2c(c(=O)n(C)c(=O)n2C)n1Cc1ccc(Cl)cc1`, the Potency is reported as inconclusive: 18.4 µM [cytotoxic, partial curve, poor fit]. For `COc1ccc2c(C)nc(Nc3nc(-c4ccccc4)cc(=O)[nH]3)nc2c1`, the Potency was active: 4.61 µM. In the case of `COc1ccc2c(c1)c1c(c(=O)n(-c3ccc(F)c(Cl)c3)c(=O)n1Cc1ccccc1C)n2C`, the “activity change, negative = cytotoxic” value is reported as inactive: -4.32%. For `COC(CNC(=O)c1cccnc1)OC`, the “activity change, negative = cytotoxic” value was inactive: 5.38%. With `O=[N+]([O-])c1ccc(Sc2cccc3cccnc23)c2cccnc12` the Potency was inconclusive: 29.1 µM [cytotoxic, single point]. With `COC(=O)C1=C(NC(=O)c2ccccc2[N+](=O)[O-])CCS1` the “activity change, negative = cytotoxic” value was inactive: 13.3%. With `CCSC1=NC2(CCN(C(=O)NC3CCCCC3)CC2)N=C1c1ccc(Cl)cc1` the Potency was inconclusive: 18.4 µM [cytotoxic, partial curve, poor fit]. In the case of `O=C(COC(=O)CNC(=O)C1CCCCC1)Nc1ccc(Br)cc1Br`, the “activity change, negative = cytotoxic” value is reported as inactive: 10.5%. With `Cc1ccc(-n2c(SCc3ccc([N+](=O)[O-])cc3)nc3ccccc3c2=O)cc1` the “activity change, negative = cytotoxic” value was inactive: -12.4%. With `O=C(c1cc(Br)ccc1Cl)N1CCCC1` the Potency was inconclusive: 32.6 µM [rising, partial curve, poor fit]. With `CNC(=O)c1c(NC(=O)c2ccco2)sc(C)c1C` the Potency was inconclusive: 29.1 µM [rising, single point]. In the case of `COc1ccc(S(=O)(=O)N2CCN(CC(=O)c3[nH]c(C)c(C(C)=O)c3C)CC2)cc1OC`, the “activity change, negative = cytotoxic” value is reported as inactive: 4.99%. For `Cc1ccc(NC(=O)c2sc3nc4c(cc3c2N)CN(Cc2ccccc2)CC4)cc1`, the Potency was inconclusive: 29.1 µM [cytotoxic, partial curve, poor fit]. For `CCN(CC)c1ccc2cc(C(N)=O)/c(=N\NC(=O)c3ccncc3)oc2c1`, the Potency was inconclusive: 29.1 µM [cytotoxic, single point]. For `CC(C)Cn1c(=O)c(C(=O)Nc2ccncc2)c(O)c2ccccc21`, the Potency was active: 7.31 µM. For `O=C(CN(Cc1ccco1)C(=O)CNS(=O)(=O)c1ccc(Cl)cc1)NCc1ccco1`, the “activity change, negative = cytotoxic” value was inactive: 1.14%. With `COc1ccc(C(=O)Nc2ccc(S(=O)(=O)N3CCc4ccccc43)cc2)cc1` the Potency was active: 2.91 µM. For `O=C(CN1C(=O)NC2(CCCC2)C1=O)NC(c1ccccc1)c1ccccc1`, the Potency was inconclusive: 3.26 µM [rising, partial curve, poor fit]. For `Nn1c(SCC(=O)NC2CCCC2)nnc1C(F)(F)F`, the “activity change, negative = cytotoxic” value was inactive: 0%. In the case of `CC(C)(C)OC(=O)C[C@@H]1C/C=C\C[C@@H](CC(=O)N(CCO)Cc2ccccc2)C(=O)N[C@H](C(C)(C)C)COC1=O`, the activity change, negative = cytotoxic is reported as inconclusive: 39.1%. In the case of `C=C(C)CNC(=S)NNC(=O)CCn1c2ccc(Cl)cc2c2cc(Cl)ccc21`, the Potency is reported as inconclusive: 29.1 µM [cytotoxic, single point]. In the case of `O=C(NCC1CCCO1)c1cccc(S(=O)(=O)Nc2ccccc2Cl)c1` (stereo unspecified), the “activity change, negative = cytotoxic” value is reported as inactive: 2.81%. For `NC1=NC(=Nc2ccc(Cl)cc2)c2ccccc21`, the “activity change, negative = cytotoxic” value was inactive: -12.5%. With `O=C(Cc1ccccc1)Nc1nc(-c2cccs2)cs1` the Potency was inconclusive: 35.5 µM [cytotoxic, single point]. For `COc1ccc(CCCC(=O)NCc2ccccc2)cc1C`, the Potency was inconclusive: 7.31 µM [cytotoxic, partial curve, poor fit]. For `Fc1ccc(-c2noc3ncnc(NCCCN4CCN(c5ccccc5)CC4)c23)cc1`, the “activity change, negative = cytotoxic” value was inactive: -0.415%. For `COc1ccc(/C=C2/Sc3ccc(C(=O)NCCCN4CCOCC4)cc3NC2=O)cc1OC`, the Potency was inconclusive: 18.4 µM [cytotoxic, single point]. In the case of `Cc1cc(C)cc(C(=O)NCC(=O)OCN2C(=O)c3ccccc3C2=O)c1`, the Potency is reported as inconclusive: 29.1 µM [cytotoxic, partial curve, poor fit]. With `Cc1cc(=O)[nH]c(SCC(=O)Nc2ccc3c(c2)OCCO3)n1` the Potency was inconclusive: 4.11 µM [cytotoxic, partial curve, poor fit]. For `COc1ccc(C2N(C(=O)N(C)C)CCN2S(=O)(=O)c2ccc(OC)cc2)cc1` (stereo unspecified), the “activity change, negative = cytotoxic” value was inactive: 1.1%. For `Cc1ccc(-n2nnnc2-c2cccc(C)c2)cc1`, the Potency was inconclusive: 25.9 µM [cytotoxic, single point]. In the case of `COc1ccc(Cn2ccc3nc(C)c(C(=O)NCc4ccc(F)cc4)cc3c2=O)cc1`, the Potency is reported as inconclusive: 1.64 µM [cytotoxic, full curve, poor fit]. For `C#CCNC(=O)C[C@@H]1C[C@@]2(C(=O)OC)CC(C)(C)CC=C2N(CCc2ccc(OC)c(OC)c2)C1=O`, the “activity change, negative = cytotoxic” value was inactive: -12.9%. For `O=C(NC1CCCC1)C(c1ccc(F)cc1)N(Cc1ccccc1Cl)C(=O)CCl` (stereo unspecified), the Potency was inconclusive: 29.1 µM [cytotoxic, single point]. With `CCOc1ccc(N2C(=O)CS/C2=C(\C(Cl)=C(Cl)Cl)[N+](=O)[O-])cc1` the Potency was inconclusive: 23.1 µM [rising, partial curve, poor fit].
